Results reported in article doi:10.1101/153304.
These are yes or no findings as the source states them, for the method shown. Binding seen in cells or lysates may run through a third protein. Binding can be weak; no strength is given.

The chains behind the UniProt entries cited, without tags or fusion partners. Where a name states a change or a piece, a line headed by the entry shows the natural chain unless it says otherwise.
UniProt Q99996: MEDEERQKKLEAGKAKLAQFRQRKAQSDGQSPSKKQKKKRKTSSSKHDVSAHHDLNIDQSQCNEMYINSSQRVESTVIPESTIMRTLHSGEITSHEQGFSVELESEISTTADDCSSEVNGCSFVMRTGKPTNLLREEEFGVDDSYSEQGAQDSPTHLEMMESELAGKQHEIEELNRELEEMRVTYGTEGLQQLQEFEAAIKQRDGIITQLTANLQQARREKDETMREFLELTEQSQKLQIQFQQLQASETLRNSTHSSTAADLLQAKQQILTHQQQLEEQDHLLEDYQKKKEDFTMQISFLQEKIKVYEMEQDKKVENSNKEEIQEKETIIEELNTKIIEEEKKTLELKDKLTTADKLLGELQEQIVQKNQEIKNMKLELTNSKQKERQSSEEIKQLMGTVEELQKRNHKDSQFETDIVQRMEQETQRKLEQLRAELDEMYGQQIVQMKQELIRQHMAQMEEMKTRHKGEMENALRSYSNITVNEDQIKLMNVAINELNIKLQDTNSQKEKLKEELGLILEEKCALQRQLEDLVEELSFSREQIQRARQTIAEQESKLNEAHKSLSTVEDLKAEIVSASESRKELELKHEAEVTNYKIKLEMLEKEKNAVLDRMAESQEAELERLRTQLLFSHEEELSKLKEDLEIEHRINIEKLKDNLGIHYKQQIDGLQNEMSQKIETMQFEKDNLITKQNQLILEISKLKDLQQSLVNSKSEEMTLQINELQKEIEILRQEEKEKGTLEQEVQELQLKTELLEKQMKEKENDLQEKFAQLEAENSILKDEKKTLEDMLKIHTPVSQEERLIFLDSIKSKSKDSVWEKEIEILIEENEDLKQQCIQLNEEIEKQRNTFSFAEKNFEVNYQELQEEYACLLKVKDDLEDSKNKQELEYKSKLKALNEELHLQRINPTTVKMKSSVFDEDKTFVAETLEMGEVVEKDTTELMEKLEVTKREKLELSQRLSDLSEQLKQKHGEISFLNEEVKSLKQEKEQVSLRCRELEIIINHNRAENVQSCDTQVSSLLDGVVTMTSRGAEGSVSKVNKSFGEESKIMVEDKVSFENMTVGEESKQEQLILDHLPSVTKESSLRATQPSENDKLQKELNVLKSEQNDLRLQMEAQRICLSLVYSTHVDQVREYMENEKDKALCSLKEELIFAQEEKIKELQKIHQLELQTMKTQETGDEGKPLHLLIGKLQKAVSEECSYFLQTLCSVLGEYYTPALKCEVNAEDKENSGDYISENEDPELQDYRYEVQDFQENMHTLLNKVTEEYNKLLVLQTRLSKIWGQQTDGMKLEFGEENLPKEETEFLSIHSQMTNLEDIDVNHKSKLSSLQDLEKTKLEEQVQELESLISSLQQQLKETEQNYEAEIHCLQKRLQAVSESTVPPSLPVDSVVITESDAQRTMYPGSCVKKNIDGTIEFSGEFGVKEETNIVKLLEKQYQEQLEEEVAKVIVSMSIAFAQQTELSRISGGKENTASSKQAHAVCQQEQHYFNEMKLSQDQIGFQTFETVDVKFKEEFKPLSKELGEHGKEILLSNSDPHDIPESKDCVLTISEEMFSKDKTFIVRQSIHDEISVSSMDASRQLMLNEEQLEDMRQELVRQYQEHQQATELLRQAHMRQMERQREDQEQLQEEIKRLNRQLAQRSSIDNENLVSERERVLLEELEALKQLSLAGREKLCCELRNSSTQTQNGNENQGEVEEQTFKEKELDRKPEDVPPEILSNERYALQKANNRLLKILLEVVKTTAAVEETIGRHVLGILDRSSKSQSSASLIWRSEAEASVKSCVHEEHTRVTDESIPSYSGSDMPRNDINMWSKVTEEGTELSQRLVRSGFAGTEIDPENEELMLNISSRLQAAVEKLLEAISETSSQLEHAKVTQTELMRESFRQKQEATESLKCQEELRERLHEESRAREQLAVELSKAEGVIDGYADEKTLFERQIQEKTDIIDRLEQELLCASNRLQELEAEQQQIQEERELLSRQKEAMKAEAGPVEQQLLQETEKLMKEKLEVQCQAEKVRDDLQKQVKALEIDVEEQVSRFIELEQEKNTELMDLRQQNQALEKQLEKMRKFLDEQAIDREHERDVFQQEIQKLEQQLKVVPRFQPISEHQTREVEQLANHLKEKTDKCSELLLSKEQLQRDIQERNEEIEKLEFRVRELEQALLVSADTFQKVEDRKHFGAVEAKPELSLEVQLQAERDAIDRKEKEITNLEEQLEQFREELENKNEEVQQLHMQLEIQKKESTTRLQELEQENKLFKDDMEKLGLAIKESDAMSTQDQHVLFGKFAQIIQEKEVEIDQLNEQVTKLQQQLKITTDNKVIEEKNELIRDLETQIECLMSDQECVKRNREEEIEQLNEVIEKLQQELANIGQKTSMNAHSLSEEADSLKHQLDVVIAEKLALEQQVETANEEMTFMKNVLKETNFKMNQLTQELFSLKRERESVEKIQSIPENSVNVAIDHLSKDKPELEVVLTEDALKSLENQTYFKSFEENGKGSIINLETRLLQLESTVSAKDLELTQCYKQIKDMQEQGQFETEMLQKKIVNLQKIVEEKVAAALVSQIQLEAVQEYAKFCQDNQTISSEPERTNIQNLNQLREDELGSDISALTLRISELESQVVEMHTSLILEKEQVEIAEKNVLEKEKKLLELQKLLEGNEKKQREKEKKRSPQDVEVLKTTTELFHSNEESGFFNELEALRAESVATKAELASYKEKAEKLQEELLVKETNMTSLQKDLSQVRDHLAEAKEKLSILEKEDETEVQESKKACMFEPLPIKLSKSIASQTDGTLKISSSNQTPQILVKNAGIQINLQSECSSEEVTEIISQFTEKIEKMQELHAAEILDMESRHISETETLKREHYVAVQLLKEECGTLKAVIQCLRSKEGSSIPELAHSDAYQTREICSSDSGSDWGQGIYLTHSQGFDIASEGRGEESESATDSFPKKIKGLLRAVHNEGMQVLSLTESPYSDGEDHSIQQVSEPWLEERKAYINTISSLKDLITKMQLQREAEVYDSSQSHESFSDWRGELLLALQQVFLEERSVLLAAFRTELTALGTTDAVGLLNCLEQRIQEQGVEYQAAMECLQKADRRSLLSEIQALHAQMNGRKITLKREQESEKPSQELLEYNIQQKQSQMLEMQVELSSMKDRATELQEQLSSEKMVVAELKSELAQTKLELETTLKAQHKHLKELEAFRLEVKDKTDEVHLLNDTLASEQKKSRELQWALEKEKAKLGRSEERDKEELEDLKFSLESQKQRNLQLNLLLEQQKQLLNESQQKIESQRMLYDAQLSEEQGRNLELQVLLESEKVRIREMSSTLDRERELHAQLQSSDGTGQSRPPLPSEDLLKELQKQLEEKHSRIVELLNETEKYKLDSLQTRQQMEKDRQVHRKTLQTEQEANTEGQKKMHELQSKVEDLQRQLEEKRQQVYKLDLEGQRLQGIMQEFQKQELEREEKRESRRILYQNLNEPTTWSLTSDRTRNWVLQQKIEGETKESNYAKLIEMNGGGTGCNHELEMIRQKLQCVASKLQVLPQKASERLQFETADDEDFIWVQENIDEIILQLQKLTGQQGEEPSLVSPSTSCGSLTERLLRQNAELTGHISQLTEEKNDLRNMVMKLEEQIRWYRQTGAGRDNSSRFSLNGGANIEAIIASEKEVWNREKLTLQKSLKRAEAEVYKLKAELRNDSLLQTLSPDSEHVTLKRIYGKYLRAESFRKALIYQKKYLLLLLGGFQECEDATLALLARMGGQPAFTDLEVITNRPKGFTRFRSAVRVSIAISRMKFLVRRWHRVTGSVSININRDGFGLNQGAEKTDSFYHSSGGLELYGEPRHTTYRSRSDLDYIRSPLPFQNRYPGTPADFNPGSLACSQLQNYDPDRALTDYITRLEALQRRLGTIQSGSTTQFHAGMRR
UniProt P23258: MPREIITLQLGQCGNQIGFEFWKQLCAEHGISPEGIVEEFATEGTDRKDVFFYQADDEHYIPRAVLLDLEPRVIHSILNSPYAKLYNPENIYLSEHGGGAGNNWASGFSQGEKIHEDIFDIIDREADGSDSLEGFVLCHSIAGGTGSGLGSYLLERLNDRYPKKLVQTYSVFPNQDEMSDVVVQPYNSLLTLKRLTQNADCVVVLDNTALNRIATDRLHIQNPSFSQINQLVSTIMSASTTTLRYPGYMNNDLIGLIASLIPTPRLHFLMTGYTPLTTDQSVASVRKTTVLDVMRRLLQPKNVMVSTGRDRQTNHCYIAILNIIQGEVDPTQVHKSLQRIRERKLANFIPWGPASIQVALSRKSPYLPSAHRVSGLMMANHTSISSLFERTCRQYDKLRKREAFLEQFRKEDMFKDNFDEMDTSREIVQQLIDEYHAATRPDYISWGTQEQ

Target: AKAP450 (human (endogenous in hTERT-RPE1 or HeLa; cell line of the co-IP not stated)) (UniProt Q99996)
Experiment: co-IP

γ-tubulin (from UniProt P23258)
binding: binds
